We go through one substance from PMC11220046.

Amino acid sequences for entries named in this document (tags omitted). Residues count along the entry.
UniProt Q9BXM7, residues 78-581: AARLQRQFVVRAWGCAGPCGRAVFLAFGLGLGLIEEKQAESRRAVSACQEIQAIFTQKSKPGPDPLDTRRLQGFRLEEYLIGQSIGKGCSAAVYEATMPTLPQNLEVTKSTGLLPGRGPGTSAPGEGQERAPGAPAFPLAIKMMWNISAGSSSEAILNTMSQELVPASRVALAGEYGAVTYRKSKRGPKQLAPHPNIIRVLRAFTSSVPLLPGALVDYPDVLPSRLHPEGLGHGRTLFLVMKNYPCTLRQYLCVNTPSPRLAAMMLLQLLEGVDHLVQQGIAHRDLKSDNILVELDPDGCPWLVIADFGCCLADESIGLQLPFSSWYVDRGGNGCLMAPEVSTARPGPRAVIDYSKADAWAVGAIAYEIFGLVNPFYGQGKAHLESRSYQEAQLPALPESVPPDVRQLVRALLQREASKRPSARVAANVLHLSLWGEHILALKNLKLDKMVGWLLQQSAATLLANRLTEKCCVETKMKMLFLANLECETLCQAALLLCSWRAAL

Results are given in words; binding and its absence hold for the method and conditions named. Binding seen in cells or lysates may run through a third protein. Some results given as binding are weak or reduced against the parent protein; the word gives no strength.

The target in this assay is T1, Macrophage migration inhibitory factor (human (endogenous in HK-2)) (UniProt P14174).
T1 sequence: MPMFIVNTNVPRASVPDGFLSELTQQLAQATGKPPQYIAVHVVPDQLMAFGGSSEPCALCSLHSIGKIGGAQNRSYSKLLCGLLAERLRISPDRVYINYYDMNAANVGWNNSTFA
Put plainly: co-IP; antibody (or IgG) bound to protein A+G magnetic beads for 1 h at room temperature, lysate added overnight at 4 degrees Celsius, eluted in SDS loading buffer, immunoblot; HK-2 cell groups with LPS, ISO-1, OE-MIF or KD-MIF.

“PTEN-induced putative kinase 1 (from UniProt Q9BXM7 78-581)”: the binding result is recorded as “binds”.
